This passage reports binding signal results from PMC7819943, “Rice protein-binding microarrays: a tool to detect cis-acting elements near promoter regions in rice”.

Some of the results follow.

The assay addresses T1, OsSMF1 (Oryza sativa, UniProt Q6ZLB0 1-436).
T1 sequence: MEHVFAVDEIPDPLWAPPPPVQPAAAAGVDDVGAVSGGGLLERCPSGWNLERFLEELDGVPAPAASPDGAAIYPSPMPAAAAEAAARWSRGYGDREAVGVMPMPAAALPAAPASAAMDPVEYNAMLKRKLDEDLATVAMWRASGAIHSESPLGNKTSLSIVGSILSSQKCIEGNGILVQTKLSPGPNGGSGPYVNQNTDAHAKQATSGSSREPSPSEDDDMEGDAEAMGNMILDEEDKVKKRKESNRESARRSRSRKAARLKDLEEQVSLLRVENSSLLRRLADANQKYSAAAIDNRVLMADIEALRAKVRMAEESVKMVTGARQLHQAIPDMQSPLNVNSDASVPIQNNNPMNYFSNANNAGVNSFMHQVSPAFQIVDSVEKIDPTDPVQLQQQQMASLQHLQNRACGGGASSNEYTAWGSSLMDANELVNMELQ
Nature of the assay: protein-binding microarray (RPBM); PBS, 2% BSA, 51.3 ng/ul salmon testes DNA, 50 uM zinc acetate, 200 nM TF, 25 C, 1 h; high values mean tight binding. The conditions noted are these: protein: recombinant; tags: N-terminal polyhistidine and DsRed monomer fusion (pET32a); chain copies: 2; label: CyDye5-dUTP incorporated in the synthesized complementary strand; 3' TTTTT single-stranded linker to array surface; dsDNA, one strand shown. The method, boiled down: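 Per-feature fluorescence intensity (arbitrary units), read on an Axon 4000B scanner, is the binding signal. Transcription factors carrying an N-terminal polyhistidine tag and DsRed fusion were expressed in E. coli BL21-CodonPlus and purified on Ni–NTA. A custom Agilent array, made double-stranded by primer extension with Cy5-dUTP and blocked with 2% BSA, was incubated with 200 nM protein in PBS, 2% BSA, salmon testes DNA and 50 µM zinc acetate at 25 °C for 1 h and then washed.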
For “AAGCAGTCGAGATTGCTTTCTCCACCCGCCGTCAATGACTCGGAGTCACCTAGTGCAG”, the binding signal is 3270 fluorescence intensity (a.u.).
As to “GTGATTAGATGACCTACTGCTTATTTATTTTCATTCATACCGGAGTCACCTAGTGCAG”, the binding signal is 3770 fluorescence intensity (a.u.).
The result for “TATCTATTTCTAGTCCTTACACATCCTTATAACTCTTTTGCGGAGTCACCTAGTGCAG” reads 3220 fluorescence intensity (a.u.); that for “TGGCGTGGCCACCCGCGGGTGCCGACGCGTCATCGATGCTCGGAGTCACCTAGTGCAG”, 9030 fluorescence intensity (a.u.).
The result for “CGTCCATCTCCGCGTCCGCGCTCTCGTGGCTCCACCTCCACGGAGTCACCTAGTGCAG” reads 3890 fluorescence intensity (a.u.); that for “ATCGCTACATTCCTGGAGGCATCCAGTTGATTCCACTCAACGGAGTCACCTAGTGCAG”, 3180 fluorescence intensity (a.u.); that for “GTTATCCCCTCCTCGTCACGCTATCTATAGGCCCATTATTCGGAGTCACCTAGTGCAG”, 6850 fluorescence intensity (a.u.).
Then “TGTAAATCTGGATTGCACATTACTCTTCTGTACTATCCATCGGAGTCACCTAGTGCAG”, with 3410 fluorescence intensity (a.u.).
For the sequence “ATCTAACTGTTGTCGATCTGGCGGTCTGACGATCTGACTCCGGAGTCACCTAGTGCAG”, the binding signal was 3890 fluorescence intensity (a.u.).
“CCCACATCTCAGCCCACGTAGGCTCAATACATCCAGTTGGCGGAGTCACCTAGTGCAG”: the binding signal is 7560 fluorescence intensity (a.u.).
Then “CCGAGGCCTCAGTGGATTGAGCGGGTGTGTGTGTCGAGCGCGGAGTCACCTAGTGCAG”, with 4600 fluorescence intensity (a.u.); and “GTCCTCGCCACGGCGCGCACGCCACGCGTACGTAGGCCGGCGGAGTCACCTAGTGCAG”, with 5270 fluorescence intensity (a.u.).
Regarding “CTCAGTCGACCAATCGTTGATCGCCACGTCGGCTGTTCTTCGGAGTCACCTAGTGCAG”, the binding signal is 11200 fluorescence intensity (a.u.).
On to “AGAAGAAGAAGAAGAGGAAAGCCATCGTCATCATCGTGTCCGGAGTCACCTAGTGCAG”, for which the binding signal is 6020 fluorescence intensity (a.u.).
Consider “ATATTATTGATGATGTGGAGAAGTTAAAGGAGCATGCACACGGAGTCACCTAGTGCAG”, for which the binding signal is 6090 fluorescence intensity (a.u.).
Then “GACGTCGTCCTTCCTGCCGTGCGCGTGTCAGAGGAGCAGCCGGAGTCACCTAGTGCAG”, with 3140 fluorescence intensity (a.u.); and “CTTGACAGTTATTTTGACACGTCCTGGTGGTGCGTTTTAACGGAGTCACCTAGTGCAG”, with 3820 fluorescence intensity (a.u.).
Then “TCCCCATCTCCCTTCATCTCCCTCCCATCTCCTCTCTCCGCGGAGTCACCTAGTGCAG”, with 29300 fluorescence intensity (a.u.); and “AAACGGCGGACGCGTGGCGTGCGGCACGCTCCACCGACCTCGGAGTCACCTAGTGCAG”, with 4260 fluorescence intensity (a.u.).
Regarding “CAAATCCCACCTGTCCAACCAAGGACCAACCAACCCCGCGCGGAGTCACCTAGTGCAG”, the binding signal was 5060 fluorescence intensity (a.u.).
The result for “CTGCTGCTGATCTGTTGCATTTGCCCTGTTCTTGGCGCTCCGGAGTCACCTAGTGCAG” reads 3520 fluorescence intensity (a.u.); that for “TCCCAGGGCCCATCAATTAGTAGTGAAACAAATCCGGTGGCGGAGTCACCTAGTGCAG”, 3230 fluorescence intensity (a.u.); that for “ATCGCGCGTCGTCTCCACCTTTCTTGCTTGTGCCACCAAGCGGAGTCACCTAGTGCAG”, 3420 fluorescence intensity (a.u.).
Take “CCCACCACCTCGTCCTCACCGTCATCGCTGGCGCTGCCTGCGGAGTCACCTAGTGCAG”: the binding signal is 4710 fluorescence intensity (a.u.).
For “CCGCCTTGCGTGGCTGAACTTCTTCTGATGGTCCCCGCCTCGGAGTCACCTAGTGCAG”, the binding signal is 3290 fluorescence intensity (a.u.).
As for “CCGCGCCTCCGCCTCCTCCGCGTCCCCGCGCCTCTCCTTCCGGAGTCACCTAGTGCAG”, the binding signal is 3180 fluorescence intensity (a.u.).
The result for “TCAAAATCGAACCAGTGTTGCGTCATACGAGTGTCGTTTACGGAGTCACCTAGTGCAG” reads 4960 fluorescence intensity (a.u.).
Turning to “CGTTAATTTTCGCGAACTGCTAAACAATGTTTCATACAAACGGAGTCACCTAGTGCAG”, the binding signal was 3200 fluorescence intensity (a.u.).
Then “GCGCGCCACGCCACGCCACGCGCCCACGCCTCGCCTCGCCCGGAGTCACCTAGTGCAG”, with 10000 fluorescence intensity (a.u.).
The result for “CCCTTGCAAGAGCTCTCACACCCTTGTGCATTTAGTTTATCGGAGTCACCTAGTGCAG” reads 3680 fluorescence intensity (a.u.); that for “AGAAACAAGCATATGCATCATCCATCTCCTTATCGCGACCCGGAGTCACCTAGTGCAG”, 3310 fluorescence intensity (a.u.).
Then “TTTCTTAATGTGATGTATGACGTAAACCATCACCCTTGTTCGGAGTCACCTAGTGCAG”, with 6400 fluorescence intensity (a.u.); and “GAACCGTGCCGTCCTGCCGTGAATCAGAACTTTTCCTAGTCGGAGTCACCTAGTGCAG”, with 3280 fluorescence intensity (a.u.); and “TTGAAGCCCACCACACCACCTCACCTCGCCGCCGCCGCCACGGAGTCACCTAGTGCAG”, with 4260 fluorescence intensity (a.u.).
Consider “AGCAGATCCGAGTTGGCATCGATGAGGTGGCATCAGTGGTCGGAGTCACCTAGTGCAG”, for which the binding signal is 12000 fluorescence intensity (a.u.).
The result for “AATCTTCTTGCAGTTCCACGAACTAGGAATACACGCGTCGCGGAGTCACCTAGTGCAG” reads 3680 fluorescence intensity (a.u.).
“TGTTTACTGTAGCGTCACATAGTCTAGTCATAGATTCGTCCGGAGTCACCTAGTGCAG”: the binding signal is 5460 fluorescence intensity (a.u.).
As to “TAGCGTATTATCAAGGGTGGCAACTGGCCATGCAGTGAATCGGAGTCACCTAGTGCAG”, the binding signal is 3190 fluorescence intensity (a.u.).
Then “TCTAGATGCACTCATAGCATGACACATCAATTAGTAAGAACGGAGTCACCTAGTGCAG”, with 3820 fluorescence intensity (a.u.); and “TCGTCGTCGTCGTCGTCGTCGTCGTCGTCCTCTTGTGATCCGGAGTCACCTAGTGCAG”, with 3410 fluorescence intensity (a.u.); and “GTGTGTGTGCGAGTGAGTGTTTGGGCTGACAAGTGGTATCCGGAGTCACCTAGTGCAG”, with 3890 fluorescence intensity (a.u.).
The result for “TTTATCTTTCTTTGTTTGTCCCTTGCATCATTACTCATATCGGAGTCACCTAGTGCAG” reads 3320 fluorescence intensity (a.u.).
Then “GCAAAATTTGACATGTAAGCTGCTAGGACTAGTAGTAATGCGGAGTCACCTAGTGCAG”, with 3780 fluorescence intensity (a.u.).
Turning to “ACACCTGCTCGGTCATCCACGAGCACTATGACTGTATGAACGGAGTCACCTAGTGCAG”, the binding signal is 6010 fluorescence intensity (a.u.).
Then “GCCATCCTCACGCACACGCCACGTGCTCGACGAAATGCCGCGGAGTCACCTAGTGCAG”, with 4190 fluorescence intensity (a.u.); and “CTCGCATGCCAAGTGTGCGCCGCCCGCCGCGCCGCGCCGCCGGAGTCACCTAGTGCAG”, with 3180 fluorescence intensity (a.u.); and “TCCTTCCACCACCACCTCCTTCTTTAGGAGTAGCAGCAGCCGGAGTCACCTAGTGCAG”, with 26500 fluorescence intensity (a.u.).
Then “ATCGGGGACACGCGTACGGCGGAAGATCCCGTGGCATTTCCGGAGTCACCTAGTGCAG”, with 4990 fluorescence intensity (a.u.); and “CGGGCACTCTCGTCTCCGACGTGAAGGCCCGAGATCACTGCGGAGTCACCTAGTGCAG”, with 60900 fluorescence intensity (a.u.); and “GCGAGCGCCACGCACCCCGGACCCGGTCACGGCACGGCCCCGGAGTCACCTAGTGCAG”, with 4260 fluorescence intensity (a.u.).
Then “TAGCCAACCAGGTCATCTTCTCTCCTTCCCCGGCAGTTATCGGAGTCACCTAGTGCAG”, with 4100 fluorescence intensity (a.u.); and “TACGTAAGATAGCTAGATGATTATGTCTTTCCGTATTGTTCGGAGTCACCTAGTGCAG”, with 5220 fluorescence intensity (a.u.); and “TGCCAAATGGCATATCGATAATGACATGGCTCGAATTAACCGGAGTCACCTAGTGCAG”, with 3900 fluorescence intensity (a.u.).
Consider “ACTGATGCCACCTTACCCATGTCCACGCCTTCCAGTGTTGCGGAGTCACCTAGTGCAG”, for which the binding signal was 4950 fluorescence intensity (a.u.).
